## Screening data, single-dose tests

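Whole-parasite assay of Trypanosoma brucei over 72 hours; the read-out is not stated. Concentration: 30 µM. Higher reads as stronger inhibition (inferred: compounds with an IC50 in retests scored well above the rest). Values scatter widely below zero; nearly all retest evidence comes from the higher of the two concentrations used. Size under these conditions: about 64,000 compounds, about 940 of them at 50% or above in at least one test.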

Values are the deposited “Percent Effect”, in %. The record does not define 0% and 100%; most values in the screen are far below 50% and negative numbers occur (in some assays of this library far below -100). The compounds are a random part of those screened.

{"structure": "O=C(c1ccccn1)N1CCC(Oc2cccnc2)CC1", "effect": -7.227}
{"structure": "O=C1NC(c2cnc(C3CCC3)s2)Nc2ccccc21", "stereo": "configuration not stated", "effect": -20.46}
{"structure": "[H][C@@]12CCN(Cc3ccc(C)s3)C[C@]1(C(=O)N1CCCO1)CCO2", "effect": -2.384}
{"structure": "CCN1C(=O)CCC12CCCN(S(=O)(=O)c1cccc(C)c1)CC2", "stereo": "configuration not stated", "effect": -14.11}
{"structure": "Cc1nc(CN(C)S(=O)(=O)c2ccccc2C(F)(F)F)no1", "effect": -72.41}
{"structure": "CN(Cc1nc(-c2cccs2)no1)Cc1nc2c(s1)CCCC2", "effect": -17.11}
{"structure": "CC(C)(C)c1noc(OCC(=O)NCC(F)(F)F)n1", "effect": -29.88}
{"structure": "COC(=O)c1sccc1S(=O)(=O)NCCc1ccoc1", "effect": 15.29}
{"structure": "CCC(=O)Nc1cccc(OCC(=O)N(C)Cc2cc(COC)[nH]n2)c1", "effect": 6.699}
{"structure": "CN(Cc1ccc2c(c1)OCO2)Cc1nc2c(cnn2C)c(=O)[nH]1", "effect": 39.48}
{"structure": "CCc1ncnc2c1CCN(S(=O)(=O)c1ccccc1)CC2", "effect": -22.78}
{"structure": "COCCN1CCN(Cc2ccco2)Cc2ccc(C)nc21.O=C(O)C(F)(F)F.O=C(O)C(F)(F)F", "effect": -26.7}
{"structure": "CC(=O)NCCNc1cc(C)nc2cc(C)nn12", "effect": 6.209}
{"structure": "O=C(CCc1ccc(O)cc1)N1CCC(Cc2ccc(CO)cc2)C1", "stereo": "configuration not stated", "effect": 26.35}
{"structure": "CN1CCN(c2cc(CNC(=O)Cn3cccn3)ccn2)CC1", "effect": -13.98}
{"structure": "COc1ccc(C2CCCN2Cc2nc3c(cnn3C)c(=O)[nH]2)cc1", "stereo": "configuration not stated", "effect": -9.715}
{"structure": "CC(=O)N(Cc1noc(C2CC2)n1)C1CCN(Cc2ccccc2)C1", "stereo": "configuration not stated", "effect": -22.46}
{"structure": "CS(=O)(=O)N1CCOCC12CCN(c1nncs1)CC2", "effect": -2.032}
{"structure": "CC(C)(C)c1nc(NS(=O)(=O)c2ccccc2F)no1", "effect": -17.01}
{"structure": "COCCNC(=O)c1cc2c(s1)CCN2S(C)(=O)=O", "effect": -4.544}
{"structure": "Cc1cc(-c2cnn(CCNC(=O)C3CC3)c2C2CC2)on1", "effect": -31.74}
{"structure": "CC(C)c1noc(CS(=O)(=O)Cc2nc(C(C)C)no2)n1", "effect": -35.98}
{"structure": "O=C(Cn1ccc2sccc2c1=O)NCCCc1ccccc1", "effect": -11.95}
{"structure": "O=S(=O)(CCOc1ccc(F)cc1)Nc1cnn(CC(F)F)c1", "effect": -29.88}
{"structure": "CC/N=c1\\nc(NCC)nc2n1C(O)(Nc1cccc(C)c1C)CS2", "stereo": "configuration not stated", "effect": -45.72}
{"structure": "O=C(Cn1cc(Cl)cn1)N1CCNC1=O", "effect": -20.67}
{"structure": "Fc1ccccc1Sc1ccccc1CNC1=NCCN1.I", "effect": 6.107}
{"structure": "[H][C@@]12CS(=O)(=O)C[C@]1([H])N(C(=O)c1ccc(COC)o1)CCN2C(=O)CC", "effect": -19.09}
{"structure": "COCCOCCNS(=O)(=O)C1CS(=O)(=O)c2ccccc21", "stereo": "configuration not stated", "effect": -80.84}
{"structure": "O=C(c1cc(C2CC2)[nH]n1)N1CCCC(n2cncn2)C1", "stereo": "configuration not stated", "effect": -8.579}
{"structure": "Cc1n[nH]c(C)c1CCNC(=O)C1CCCN(CC(N)=O)C1", "stereo": "configuration not stated", "effect": -16.05}
{"structure": "Cn1ccnc1CN1CCCC(CO)(CCc2ccccc2)C1", "stereo": "configuration not stated", "effect": -18.42}
{"structure": "CCOC(C(=O)N1CCn2c(nnc2C(C)C)C1)c1ccccc1", "stereo": "configuration not stated", "effect": -47.64}
{"structure": "COc1ccc(F)cc1C(=O)N1CC(c2ccncc2)C1", "effect": 3.499}
{"structure": "O=c1[nH]c2ccccc2cc1CNCCCN1CCOCC1", "effect": -20.09}
{"structure": "Cc1ccn(-c2ccc(NCc3cccnc3N3CCCCC3)nn2)n1", "effect": 1.055}
{"structure": "O=C(Cc1csc(-c2nnc[nH]2)n1)N1CCCC1Cn1cccn1", "stereo": "configuration not stated", "effect": -34.11}
{"structure": "CN(Cc1nnc(-c2ccco2)o1)C(C(N)=O)c1cccc(F)c1", "stereo": "configuration not stated", "effect": -19.39}
{"structure": "O=C1CSC(c2ccsc2)c2c(n(C3CCOCC3)[nH]c2=O)N1", "stereo": "configuration not stated", "effect": 11.76}
{"structure": "Cn1ccc(CN2CCC3(CC2)CC(Nc2cnccn2)CO3)n1.O=C(O)C(F)(F)F", "stereo": "configuration not stated", "effect": -39.99}
{"structure": "CN1CCCN(c2nccc(-c3cncnc3C3CCCCC3)n2)CC1", "effect": -3.717}
{"structure": "COc1cccc(C(C(=O)O)N2CCCN(c3ccnc(C)c3)CC2)c1", "stereo": "configuration not stated", "effect": -7.33}
{"structure": "O=C(CCn1ccc2ccccc21)N1CCC(Nc2cccnc2)CC1", "effect": 24.02}
{"structure": "NCc1n[nH]c(-c2ccc(F)cc2)n1", "effect": -3.815}

Repeated from the top, 2 entries:

O=C(c1ccccn1)N1CCC(Oc2cccnc2)CC1 read -7.227%.
O=C1NC(c2cnc(C3CCC3)s2)Nc2ccccc21 (configuration not stated) read -20.46%.

Source: ChEMBL document CHEMBL3988442, “University of Dundee, Small-Polar-MMV Screening Library” (2021).